The text below walks through data of US20160032291.

Chains of the proteins cited; added tags and fusions are not shown. Residues count along the entry.
UniProt P09564, 26-240: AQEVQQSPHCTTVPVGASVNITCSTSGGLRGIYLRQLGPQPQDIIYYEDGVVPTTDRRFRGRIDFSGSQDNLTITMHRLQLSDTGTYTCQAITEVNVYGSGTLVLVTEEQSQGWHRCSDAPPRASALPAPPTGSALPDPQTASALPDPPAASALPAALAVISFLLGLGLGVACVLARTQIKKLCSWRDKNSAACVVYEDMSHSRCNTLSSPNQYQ

At least one result comes from cells or an extract, where the contact may be indirect. For part of these data: No signal at the amounts used counts as a negative. For part of these data: Weaker means in comparison with the reference protein, sequence or condition of that experiment. For part of these data: The exact form of at least one protein or probe is not confirmed.

Series [1] has as its target CD7 (T-cell surface receptor) (Homo sapiens) (UniProt P09564). Briefly: binding assay. As to conditions: 2'-F pyrimidines (all C and U); confocal; surface binding at 4 C increased by anti-CD7 mAb; internalised at 37 C only without mAb; protein on the cell surface; protein details: stably transfected CD7-HeLa cells; label: Cy3 or FAM.
Series [2] shares this target. In words: flow cytometry. The following applies: protein on the cell surface. (Flow cytometry measures light scatter and fluorescence of single cells or particles in a stream.)
The mark [3] stands for this setting: 2'-F pyrimidines (all C and U), 400 nM, 4 C, binds CD7-HeLa more than HeLa, reduced by anti-CD7 mAb, protein details: stably transfected CD7-HeLa cells, label: ….
The mark [4] stands for this setting: 2'-F pyrimidines (all C and U), 400 nM, 4 C, binds CD7-HeLa more than HeLa, reduced by anti-CD7 mAb, protein details: stably transfected CD7-HeLa cells, label: FAM or Cy3.
The mark [5] stands for this setting: 2'-F pyrimidines (all C and U), Jurkat, 400 nM overnight 37 C, association significantly different from transfection control, protein details: endogenous on Jurkat cells (ATCC TIB-152), label: FAM or Cy3.

For the sequence “GGGAGACAAGAAUAAGCAUGCGUCCCACACCCUCCGAUUCCGACCAGGACUGGAUACUUACACUUUUUCGACAGGAGGCUCACAACAGGC [CSIR 3.42]”, the binding result in series [1] is listed as “binds”.

“GGGAGACAAGAAUAAGCAUGGCCGAUCCAUCCUCCCCACGACCAUCAUGAAUCCCAACAGGAACUUCGACAGGAGGCUCACAACAGGC [CSIR 3.10]”: in series [2] (setting [3]), the binding result was “binds”. On the same count and under the same terms, as for “GGGAGACAAGAAUAAGCAUGACCGUGCUCUGUGACAGGACUUUACUUAGGGAUAAGGGUUGAAACUUCGACAGGAGGCUCACAACAGGC [CSIR 3.47]”, the entry is “binds”; as for “GGGAGACAAGAAUAAGCAUGCCCCUUGCGGUUCCCACAUUAUCUCUCUGCUAUCCCGAUGGCCCGAUUCGACAGGAGGCUCACAACAGGC [CSIR 3.8]”, “binds”.

Regarding “GGGAGACAAGAAUAAGCAUGGAGUGCGUCGCCACUACUCCUCUCAUUACCUCUUGCAUUUCACUAUUCGACAGGAGGCUCACAACAGGC [CSIR 3.23]”, the binding result in series [2] (2'-F pyrimidines (all C and U), 400 nM, 4 C, binds CD7-HeLa more than HeLa, reduced by mAb, CD7-specific internalisation at 37 C by confocal, protein details: stably transfected CD7-HeLa cells, label: FAM) was “binds”. Turning to “GGGAGACAAGAAUAAGCAUGAGCGCCAAUAUGACCGCGACAUCGUUUGAAUAGUUCCUGGGGAUCUUUCGACAGGAGGCUCACAACAGG [CSIR 3.14]”, the binding result in series [2] (2'-F pyrimidines (all C and U), 400 nM, 4 C, binds CD7-HeLa more than HeLa, reduced by anti-CD7 mAb, protein details: stably transfected CD7-HeLa cells, label: Cy3 or FAM) was “binds”. Consider “GGGAGACAAGAAUAAGCAUGUUACCUACAAAAAAGAAAAAGAAUUAAACGGAUUAAGAAGGGGAAAAAGUAGUUCGACAGGAGGCUCACAACAGGC [CSIR 3.45]”, for which the binding result in series [2] (setting [3]) is on record as “binds”. With “GGGAGACAAGAATAAGCATGAGCGCCAATATGACCGCGACATCGTTTGAATAGTTCCTGGGGATCTTTCGACAGGAGGCTCACAACAGG [CSIR 3.14 DNA]”, in series [2] (Jurkat, 400 nM overnight, DNA isoform not able to bind significantly, protein details: endogenous on Jurkat cells (ATCC TIB-152), label: FAM, single-stranded DNA, variant of CSIR 3.14), the binding result is recorded as “no binding”. For “GGGAGACAAGAAUAAGCAUGCAGGUCCCACCGCCCCGCUCCCUUAUCAGCUUGGAAUACGUUUUCAUUCGACAGGAGGCUCACAACAGGC [CSIR 3.53]”, the binding result in series [2] (2'-F pyrimidines (all C and U), 400 nM, 4 C, binds CD7-HeLa more than HeLa, unchanged by anti-CD7 mAb, internalisation at 37 C not CD7 specific, protein details: stably transfected CD7-HeLa cells, label: …) was “binds”. Take “GGGAGACAAGAAUAAGCAUGCCGGAUAAGGUCGUCCGUAGUACCGGUUAACGUACCAGCCUUACUCUUCGACAGGAGGCUCACAACAGGC [CSIR 3.15]”: the binding result in series [2] (setting [3]) was “binds”.

Regarding “GGGAGACAAGAAUAAGCAUGCUGGCAAUAAACGGCUAUAAGUAAAGUUCGACAGGAGGCUCACAACAGGC [CSIR 3.48]”, the binding result in series [2] (setting [4]) was “binds”; in series [2] (setting [5]) it was “binds more weakly”.

Take “GGGAGACAAGAAUAAGCAUGUCAUCUCACCGCCAUAAUCCUCAACAUUCUCCCCACCCGAUUCCCGUUCGACAGGAGGCUCACAACAGGC [CSIR 3.54]”: the binding result in series [2] (setting [3]) is reported as “binds”.

For “GGGAGACAAGAAUAAGCAUGUAAUUCCAGCAUAAAAAAGAUAGGUACUAUUAAUACACGACCAGAAUUCGACAGGAGGCUCACAACAGGC [CSIR 3.6]”, the binding result in series [2] (2'-F pyrimidines (all C and U), 400 nM, 4 C, binds CD7-HeLa more than HeLa, also listed as increased with anti-CD7 mAb, protein details: stably transfected CD7-HeLa cells, label: FAM) is on record as “binds”.

“GGGAGACAAGAAUAAGCAUGCAAUUUAUCGAGACCCAGAUAACCGAUUUAUACGCAGACGAUAAGUUUCGACAGGAGGCUCACAACAGGC [CSIR 3.31]”: in series [2] (2'-F pyrimidines (all C and U), Jurkat, 400 nM, non-binding negative control (1.97% at 6 h, 7.6% at 24 h), protein details: endogenous on Jurkat cells (ATCC TIB-152), label: FAM or Cy3), the binding result is reported as “no binding”.

For the sequence “GGGAGACAAGAAUAAGCAUGGAUCUUUCGACAGGAGGCUCACAACAGGC [CSIR 3.35]”, the binding result is listed as “binds” in series [2] (setting [4]) and “binds more weakly” in series [2] (setting [5]). In the case of “GGGAGACAAGAAUAAGCAUGGGCAGCGAUAGACUGUUAACUACAGACGGGAGUCCGCGUUUCGACAGGAGGCUCACAACAGGC [CSIR 3.36]”, the binding result in series [2] (setting [3]) is listed as “binds”.
